From the supplement of paper PMC3334620
Over roughly 33,000 sequences, “E-score (-0.5 to 0.5)” has its median near -0.0059; the highest 2% begin near 0.26. This is one part of the list.

Target: T1, Cin5 (UniProt P40917)
T1 sequence: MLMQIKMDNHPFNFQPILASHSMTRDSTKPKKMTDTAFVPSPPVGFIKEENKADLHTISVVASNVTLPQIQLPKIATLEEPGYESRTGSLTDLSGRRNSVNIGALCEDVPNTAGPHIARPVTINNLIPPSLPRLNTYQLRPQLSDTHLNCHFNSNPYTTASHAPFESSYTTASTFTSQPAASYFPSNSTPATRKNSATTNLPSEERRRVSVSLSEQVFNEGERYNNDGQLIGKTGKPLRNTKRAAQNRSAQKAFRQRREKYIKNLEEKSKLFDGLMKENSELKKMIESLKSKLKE
Experiment: PBM E-score (8-mer binding enrichment) (E-score (-0.5 to 0.5)); higher = stronger / more preferred TF binding
Conditions: protein concentration: 100 nM; construct: GST-full length
Experimental: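 Universal 'all 10-mer' protein binding microarrays (Agilent AMADID 015681) probed with GST-tagged S. cerevisiae TFs (full-length or DBD) made by in vitro transcription/translation (PURExpress), about 100-200 nM. Bound TF was detected with fluorescent anti-GST. Each ungapped 8-mer (which stands for itself and its reverse complement) is scored by the PBM enrichment score (E-score), a modified Wilcoxon-Mann-Whitney statistic from -0.5 to +0.5, computed with the Universal PBM Analysis Suite. Scale: above 0.35 generally sequence-specific binding.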

Sequence | PBM E-score
CATCGGTC | -0.174
GCGCCCGC | -0.105
GCGATCCC | -0.193
AACTGAAA | 0.0105
CCCAAGAC | -0.174
CTCTCGCA | -0.219
CATCTTCA | -0.124
CAGAGATG | 0.0572
CCTGACTC | -0.0607
AGACCTTC | -0.134
GCCCATCA | -0.115
GTATCAAC | 0.0602
CAGGATTA | 0.107
CGAGCACC | -0.2
ACGACGAT | 0.163
AAATATGG | 0.0459
CTTGGGCC | -0.316
ATCAAGGG | -0.0329
ACTGAGAT | 0.0809
AACTAAAG | 0.00596
AGGGAACA | -0.126
TACGCATA | 0.154
TATCGAAA | 0.19
CTTGTCGC | -0.00961
AAACATTA | 0.0149

Sequence | PBM E-score
CCGCTTAG | -0.0568
CCCACAGG | -0.152
CGGCCGGA | -0.0752
TCTAACCA | 0.123
CCTACAGC | 0.0164
GCTCGCAC | -0.0813
TGAGGACA | -0.00686
AAGCACGG | -0.048
AAGTCAAA | 0.0801
AATTTTTG | 0.0437
AATCGTGG | 0.217
CCCTCACG | -0.121
GGGTTGAC | 0.0366
AAAAGGAG | -0.153
GCATGCCC | 0.076
ATCCAGTA | 0.208
AGACGACG | 0.0542
CCCTTGTA | -0.0853
GTGATTTA | 0.19
TAGGCACA | -0.0732
CAGAGATC | -0.0122
TCCGGGAA | 0.146
GAGCTCGA | 0.069
ATGCCCTC | -0.0244
CTACAGAA | 0.0595

Sequence | PBM E-score
ATCATCGC | 0.126
CCTTTGTC | -0.0179
CAGAAATA | 0.164
AACGGCAC | -0.203
CTCCGAAG | -0.0908
AATTTTGT | 0.148
AGCACGAC | -0.126
ATCCTGGC | -0.0732
AATTCAGC | 0.143
CACAGTCC | -0.159
AGCGGCTG | -0.125
GCACTAAC | -0.0978
GAAAGGGA | -0.278
GAACTCAA | -0.0343
CTGTGCTC | 0.0772
ACCAACGG | -0.176
AGCGGTTG | 0.0567
CGGCAGAC | -0.217
AGCAGGGG | -0.251
ATGGTGCC | -0.289
AGTATGCG | -0.0448
CCCCGCCA | 0.0727
AGGCGTCG | -0.11
CAGTTATG | 0.175
AGACTTAT | -0.0908

Sequence | PBM E-score
AAATAATA | 0.313
AACGTGCT | -0.116
GCACCCGA | -0.206
AACTCTCG | 0.0393
TGTGCTAA | 0.125
GGACTTTA | -0.0756
AACCTTAG | -0.131
GGACCCGA | -0.0855
GTGACAAA | 0.115
TAAATACA | 0.0976
TCGTGAAA | -0.217
CGCGCAGA | 0.178
ATGGTGGG | -0.078
TAATGAAA | 0.203
TACTTACA | 0.167
CAGGCGAG | -0.136
AGGACATC | 0.0116
AACTCCTC | -0.214
GCGGCATA | 0.088
GTTCAAGA | -0.162
ATCGGAAA | 0.0538
GCCTACCC | -0.161
CCGCCGTC | 0.0344
GCCCTACC | -0.197
ATGGAGCA | -0.0264

Sequence | PBM E-score
TGACAGCA | 0.115
ACGACGTG | -0.0434
CACACTAG | -0.0474
ACGAATGA | 0.245
GGCTACAA | 0.038
CGACTTGA | -0.0696
ACCAGTGA | -0.0142
GAATTGAA | 0.185
CTAGCCTC | -0.159
AATCGGAC | 0.00251
CCACTGTA | 0.0953
GGCGTGAA | -0.183
ACTGAGCG | -0.247
GCGTATCA | -0.0134
AAGTCCAC | -0.187
CAGCGGCA | -0.0718
AATAACTG | 0.121
GCTCGAGC | 0.125
ACAGGCTG | -0.133
ACGGGAAA | 0.0935
GACAAGGC | -0.0783
ATAGGTCA | 0.0611
AGGGGGTG | -0.424
CGCCTGAA | 0.0355
ACAATGAC | -0.0847

Sequence | PBM E-score
GAATTTAC | 0.161
CAGACTGA | -0.124
CTATTTCC | 0.243
CACACCCC | -0.199
ACATACGT | -0.0596
TATATACA | 0.187
ACCCGGCG | -0.207
AGCAGACT | -0.103
ACCCAAAA | 0.0246
GGTACGTA | -0.032
CAAGGCAA | -0.0439
GCCTTCGC | 0.0354
CGTGCGAA | -0.0107
CCATATCC | 0.0404
AGGGCGAT | -0.213
AACTTCTT | 0.0633
CATGTGAC | -0.216
AACATAGA | 0.196
ACCGCAGG | -0.079
ACATGTAT | 0.189
CGCCCTCA | -0.184
CGCAAGCA | 0.0297
ATGAAGGC | -0.0561
CTTAACCA | 0.0916
AGATGACC | -0.0783

Sequence | PBM E-score
TAAACGAA | 0.0778
ACGCGAAT | 0.0922
GGACTAGA | 0.0253
CACGATGG | -0.139
GCACCTAA | -0.0501
AGTCGGTG | -0.106
AATGCGAG | 0.221
TATTAACA | 0.195
AGAAGTGG | -0.0208
AACAATCT | 0.0905
CGCGTCGC | -0.151
ACCATTAT | 0.0583
AAGGTAAA | 0.0132
GCCTCGAC | -0.235
ACGTAAGG | 0.199
ATAGATAT | 0.145
ACAACCTG | -0.147
ATACACCA | -0.0393
AGTGGGAG | -0.095
AGTGTCGC | 0.0371
ATTTGATA | 0.319
AGCATACT | 0.0194
AGATCTAG | -0.127
CCATACTA | 0.127
CTCGTACC | -0.11

Sequence | PBM E-score
TCTACGAA | -0.233
TCTGCAGA | -0.0621
ATTTTCCC | 0.0377
GGCACACC | -0.217
CGACTAAG | -0.145
GTATTTAA | 0.154
CAGGATGC | -0.0864
AGCTGTGC | -0.121
AAGCATGC | 0.0448
GAAAAGAA | 0.054
AGGGCCGA | -0.06
ACGCGGCA | -0.124
CGGTAGCA | -0.0591
AAGTAAAT | 0.226
ATGGACAC | 0.0133
CTGCTTTC | 0.058
GAGGATAA | 0.0764
ACTGAACA | 0.185
AGGGCTGA | -0.0942
TACACATA | 0.238
AGGTAGCG | -0.0989
GCATATGC | -0.0363
ACGCCGGC | 0.131
AGCAAGAG | -0.116
AGAATGTA | 0.071

Sequence | PBM E-score
GGTTGCAA | 0.0262
CCCGAACA | 0.147
AATAGCCC | -0.00512
ATTGGTTA | 0.225
CGGAAATA | 0.33
AACTGCTT | -0.0248
TACGCGGA | -0.0412
ACGCCGCG | 0.0692
CGAAATTC | 0.0842
AAGTACCT | -0.109
ATGCTGGC | 0.0323
ACGATCAC | 0.0378
CGTCCCGA | -0.185
CCCTAGAA | -0.0914
ACACGTAT | -0.00152
CAGAACGG | -0.165
GACTATAA | -0.0336
ACTGATCC | -0.0946
AACCACCC | -0.102
